According to patent US20230416275A1, “MODULATORS OF CYSTIC FIBROSIS TRANSMEMBRANE CONDUCTANCE REGULATOR” (VERTEX PHARMACEUTICALS INCORPORATED, priority 2020, published 2023):
The structures given here were assigned with low confidence; some may be wrong.

The chains behind the UniProt entries cited, without tags or fusion partners. A line that says so, or that is headed by a name, gives the form on record, which may keep a tag or linker.
UniProt P13569, with tags, fused parts or gaps DEL508-508: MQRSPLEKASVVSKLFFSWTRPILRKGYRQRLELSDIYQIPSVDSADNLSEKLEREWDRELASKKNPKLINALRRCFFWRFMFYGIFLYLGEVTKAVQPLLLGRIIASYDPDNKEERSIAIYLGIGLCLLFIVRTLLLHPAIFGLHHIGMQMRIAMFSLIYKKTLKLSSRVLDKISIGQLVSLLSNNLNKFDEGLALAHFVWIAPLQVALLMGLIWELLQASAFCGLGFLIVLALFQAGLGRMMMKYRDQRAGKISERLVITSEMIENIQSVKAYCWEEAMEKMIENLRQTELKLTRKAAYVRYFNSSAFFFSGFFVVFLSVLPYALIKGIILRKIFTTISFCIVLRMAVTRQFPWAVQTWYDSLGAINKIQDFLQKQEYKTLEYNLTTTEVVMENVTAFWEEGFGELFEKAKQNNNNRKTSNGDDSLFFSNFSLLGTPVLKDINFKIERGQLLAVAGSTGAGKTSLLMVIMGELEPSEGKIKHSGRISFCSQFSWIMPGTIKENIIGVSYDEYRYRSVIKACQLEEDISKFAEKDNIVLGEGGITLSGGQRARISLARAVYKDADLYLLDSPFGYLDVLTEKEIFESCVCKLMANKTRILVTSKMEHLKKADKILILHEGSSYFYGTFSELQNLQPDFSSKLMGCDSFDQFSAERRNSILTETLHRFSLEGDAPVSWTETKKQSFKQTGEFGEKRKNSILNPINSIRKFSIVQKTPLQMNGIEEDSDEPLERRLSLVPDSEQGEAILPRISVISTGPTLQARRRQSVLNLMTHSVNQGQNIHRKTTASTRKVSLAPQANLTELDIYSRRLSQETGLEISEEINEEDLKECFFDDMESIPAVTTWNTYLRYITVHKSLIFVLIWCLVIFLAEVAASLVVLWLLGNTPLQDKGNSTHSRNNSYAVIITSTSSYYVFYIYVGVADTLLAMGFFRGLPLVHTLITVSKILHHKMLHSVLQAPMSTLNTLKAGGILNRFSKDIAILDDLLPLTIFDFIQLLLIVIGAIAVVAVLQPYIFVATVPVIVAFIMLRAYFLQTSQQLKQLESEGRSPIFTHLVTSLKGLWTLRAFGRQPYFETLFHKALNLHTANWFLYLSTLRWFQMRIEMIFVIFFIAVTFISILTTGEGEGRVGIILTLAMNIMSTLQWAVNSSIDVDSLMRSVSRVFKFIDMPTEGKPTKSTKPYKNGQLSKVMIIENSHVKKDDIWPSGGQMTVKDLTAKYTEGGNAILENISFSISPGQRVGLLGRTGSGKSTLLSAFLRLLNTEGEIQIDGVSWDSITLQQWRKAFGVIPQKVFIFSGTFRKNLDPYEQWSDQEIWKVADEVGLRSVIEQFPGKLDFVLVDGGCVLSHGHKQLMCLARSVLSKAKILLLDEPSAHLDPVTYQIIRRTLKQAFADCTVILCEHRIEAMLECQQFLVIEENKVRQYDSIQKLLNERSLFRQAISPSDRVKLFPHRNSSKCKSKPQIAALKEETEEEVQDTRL

How the values were obtained:
F508del in NIH 3T3 cells = F508del in NIH 3T3 cells (Homo sapiens, UniProt P13569, DEL508-508); experiment: 3T3 assay: membrane potential optical assay for F508del correction; settings: F508del NIH 3T3 cells
[1] = molecular target: CFTR-mediated chloride transport in human intestinal epithelial enteroid cells (Homo sapiens, UniProt P13569); experiment: Membrane potential dye, Enteroid Assay A; settings: for Ent. A Max Activity (%): % of chloride transport of triple combination control (3 μM N-[(6-amino-2-pyridyl)sulfonyl]-6-(3-fluoro-5-isobutoxy-phenyl)-2-[(4S)-2,2,4-trimethylpyrrolidin-1-yl]pyridine-3-carboxamide, 3 μM tezacaftor, 300 nM acute ivacaftor); for EC50: read-out: Ent. A EC50, enteroid cells, 18-24 hours incubation, acute 10 μM forskolin and 300 nM ivacaftor

Row | 3T3 Max Activity (%) (F508del in NIH 3T3 cells; efficacy compared to lumacaftor in combination with acutely added 300 nM Ivacaftor) | EC50 (F508del in NIH 3T3 cells; read-out: 3T3 EC50, compound incubation 18-24 hours at 37° C., forskolin activation) | SMILES | Ent. A Max Activity (%) [1] | EC50 [1]
1 | +++ (+++ is >60%) | < 1 µM | Cc1cccc(C)c1-c1cc2nc(n1)NS(=O)(=O)c1cccc(c1)NCc1cc(ccc1Cl)O2 | ++ (++ is 30-60%) | 1 to 3 µM
2 | – | – | Cc1cccc(C)c1-c1cc2nc(n1)NS(=O)(=O)c1cccc(c1)NC(=O)[C@@H]1C[C@@H](CN(CCC(C)(O)C(F)(F)F)C1)O2 (stereo partly drawn) | +++ (+++ is >60%) | 1 to 3 µM
